The test has as its target T1, FLAG-tagged wild-type μ-opioid receptor (OPRM1) (rat), P33535.
T1 chain: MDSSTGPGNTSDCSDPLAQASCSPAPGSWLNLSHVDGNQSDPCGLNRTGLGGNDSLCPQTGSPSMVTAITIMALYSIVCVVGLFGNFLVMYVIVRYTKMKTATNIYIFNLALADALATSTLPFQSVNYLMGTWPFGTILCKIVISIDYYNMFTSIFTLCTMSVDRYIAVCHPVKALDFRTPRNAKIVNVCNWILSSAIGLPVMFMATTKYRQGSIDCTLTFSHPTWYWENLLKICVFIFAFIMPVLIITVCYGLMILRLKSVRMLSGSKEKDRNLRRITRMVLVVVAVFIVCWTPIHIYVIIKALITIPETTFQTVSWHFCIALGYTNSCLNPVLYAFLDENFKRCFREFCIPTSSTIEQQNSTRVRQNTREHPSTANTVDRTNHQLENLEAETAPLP
The test is described as follows: co-IP; FLAGOPRM1/FLAGC170A and HAOPRM1/HAC170A transfected into HEK cells; HA-tagged receptor precipitated with FLAG-tagged receptor, quantified by immunoblotting. As to conditions: remark: other sources report otherwise.

Results are given in words; binding and its absence hold for the method and conditions named. Binding seen in cells or lysates may run through a third protein. Some results given as binding are weak or reduced against the parent protein; the word gives no strength. Tags and fused reporters may be left off the sequences shown.

B1: HA-tagged wild-type μ-opioid receptor (OPRM1), P33535 1-398 (receptor)
chain: T1 chain
modifications: here or on the partner: palmitoylated at C3.55(170); palmitoylated at C3.55(170)
B1: the binding result is given as “binds”.
